The values below come from patent US20040072780A1.

Sequences of proteins named here, by UniProt entry; tags and fusion partners are left off. A change or cut given only in a name is not applied to a line headed by its entry. Residues count along the entry.
UniProt Q13488, residues 217-830: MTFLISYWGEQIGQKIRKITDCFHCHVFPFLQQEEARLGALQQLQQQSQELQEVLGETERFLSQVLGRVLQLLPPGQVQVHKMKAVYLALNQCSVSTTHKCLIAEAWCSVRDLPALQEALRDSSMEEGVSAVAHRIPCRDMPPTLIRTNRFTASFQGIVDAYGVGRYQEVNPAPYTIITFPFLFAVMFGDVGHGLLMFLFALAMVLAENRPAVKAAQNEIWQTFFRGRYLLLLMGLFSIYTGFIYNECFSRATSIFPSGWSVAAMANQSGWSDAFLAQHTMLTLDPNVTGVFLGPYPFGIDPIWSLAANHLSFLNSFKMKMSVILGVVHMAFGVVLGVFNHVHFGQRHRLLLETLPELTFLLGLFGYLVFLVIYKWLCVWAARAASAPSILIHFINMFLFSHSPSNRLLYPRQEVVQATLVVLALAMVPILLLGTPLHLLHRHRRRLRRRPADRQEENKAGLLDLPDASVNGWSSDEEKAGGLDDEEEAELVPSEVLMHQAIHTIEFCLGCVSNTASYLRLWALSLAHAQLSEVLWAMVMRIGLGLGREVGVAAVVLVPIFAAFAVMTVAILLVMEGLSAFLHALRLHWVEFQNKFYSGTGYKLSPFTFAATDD
UniProt P01903: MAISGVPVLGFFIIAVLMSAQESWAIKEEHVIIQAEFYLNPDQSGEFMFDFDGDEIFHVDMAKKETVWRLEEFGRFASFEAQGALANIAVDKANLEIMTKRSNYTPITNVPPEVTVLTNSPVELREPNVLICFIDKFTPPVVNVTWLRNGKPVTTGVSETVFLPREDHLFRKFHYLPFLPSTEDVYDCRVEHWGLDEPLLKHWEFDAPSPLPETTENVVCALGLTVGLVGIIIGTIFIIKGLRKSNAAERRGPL

Results are given in words; binding and its absence hold for the method and conditions named. In cells and extracts the contact can be indirect. Some entries that bind do so weakly or less than the wild type.

This assay concerns the target TIRC7 protein from activated human peripheral blood lymphocyte lysate (human) (UniProt Q13488). Kind of assay: co-immunoprecipitation from human lymphocyte lysate with anti-TIRC7 and anti-HLA-DR alpha chain antibodies.

Regarding “HLA-DR alpha chain from activated human peripheral blood lymphocyte lysate (from UniProt P01903 26-254) (ligand)”, the binding entry was “binds”.
